Reference: paper PMC10540840 (Frontiers in Oncology, 2023)
Where a sequence shows no end group, the ends are not given.

Assay: peptide made by a vendor
Conditions: peak area percentage

TSLDASIWAMMQNA
purity (crude or final not stated): 96.401%
